According to US5229116A, “Administration of pharmaceutical agents” (priority 1989, dated 1993):

Experiment: In vivo pharmacokinetic studies of dihydropyridines given orally with water, grapefruit juice or orange juice (plasma concentration, GC analysis)
Design: species or system hypertensive patients)
Details: human, po, 10 mg, nifedipine 10 mg capsules, healthy subjects, mean; for AUC(0-inf): zero to infinity
Experimental: Hypertensive patients and healthy volunteers were given commercially available formulations of dihydropyridines in the morning after an overnight fast. The tablets were taken either with water, orange juice, or, as a source of flavonoids, 200 ml grapefruit juice. This contains about 150 mg of flavonoids, either as aglycones or glycosides.
The protocols for the five studies are shown on Table 2.
Blood samples for the analysis of the dihydropyridine and the first metabolite were drawn before and at frequent intervals after dose via an indwelling antecubital cannula. Samples were centrifuged and the plasma frozen (-20° C.) until analysis.
The maximum plasma concentration, Cmax, and the corresponding time to reach peak concentration, tmax, were recorded from the individual plasma concentration time curves of the dihydropyridine and its first metabolite. The area from zero to infinity was calculated adding the residual area to the area from zero to last determinable plasma concentration value by using the slope of the log plasma concentration time curve in the 3 to 8 hour interval after dose.

## COC(=O)C1=C(C)NC(C)=C(C(=O)OC)C1c1ccccc1[N+](=O)[O-] [Nifedipine]
N = 6, grapefruit juice
  Cmax: 250 ± 42 nM
  Tmax: 1.2 ± 0.1 h
  AUC(0-inf): 0.627 ± 0.152 µM·h
N = 6, water
  Cmax: 222 ± 54 nM
  Tmax: 0.8 ± 0.1 h
  AUC(0-inf): 0.464 ± 0.092 µM·h
